Experimental data taken from paper doi:10.1101/2025.06.20.660715.
No constants are given. Whether binding was seen depends on the method and setting. In cells and extracts the contact can be indirect. Some entries that bind do so weakly or less than the wild type. Where a sequence is shown, tags or fusion partners need not be part of it.

Chains of the proteins cited; added tags and fusions are not shown.
UniProt P62993: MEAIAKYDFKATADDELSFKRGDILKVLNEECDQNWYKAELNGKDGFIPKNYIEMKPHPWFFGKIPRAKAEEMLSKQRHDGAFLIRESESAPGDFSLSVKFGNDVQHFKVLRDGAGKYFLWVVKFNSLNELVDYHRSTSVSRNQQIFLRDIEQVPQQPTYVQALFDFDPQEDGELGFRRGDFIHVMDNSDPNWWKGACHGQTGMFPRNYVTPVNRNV

Biological target: T1, mCherry-tagged GAB1 (UniProt Q13480)
T1 sequence: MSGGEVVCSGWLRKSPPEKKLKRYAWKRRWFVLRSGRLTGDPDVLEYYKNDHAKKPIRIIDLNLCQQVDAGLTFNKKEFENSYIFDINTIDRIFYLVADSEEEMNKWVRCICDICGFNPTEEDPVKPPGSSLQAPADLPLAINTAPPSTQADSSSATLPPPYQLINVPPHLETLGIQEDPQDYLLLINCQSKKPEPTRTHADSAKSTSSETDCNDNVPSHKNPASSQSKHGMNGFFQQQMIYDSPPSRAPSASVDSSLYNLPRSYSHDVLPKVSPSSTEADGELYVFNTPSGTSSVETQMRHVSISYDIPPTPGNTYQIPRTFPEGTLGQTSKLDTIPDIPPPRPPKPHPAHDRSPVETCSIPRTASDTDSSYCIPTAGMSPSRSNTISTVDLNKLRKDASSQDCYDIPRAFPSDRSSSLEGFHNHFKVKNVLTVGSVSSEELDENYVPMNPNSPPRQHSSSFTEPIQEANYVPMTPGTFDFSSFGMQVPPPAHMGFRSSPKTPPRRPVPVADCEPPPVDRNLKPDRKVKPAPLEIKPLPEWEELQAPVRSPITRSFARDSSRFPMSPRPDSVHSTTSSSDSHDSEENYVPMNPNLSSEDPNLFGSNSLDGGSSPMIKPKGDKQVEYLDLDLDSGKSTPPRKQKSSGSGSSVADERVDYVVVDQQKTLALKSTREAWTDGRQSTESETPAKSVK
Test: co-IP

Row | Substance | binding
1 | EGFR (from UniProt P00533 25-1210) (receptor) | binds
2 | GRB2 (from UniProt P62993 1-217) | binds
